# Where “and” joins values, the source holds several entries; their conditions need not be identical. Identical values can stand only once. This is one part of the list. Further columns of the screen follow, without active or inactive calls. Compounds called inactive in the main read-out are mostly missing here. Potencies come from curve fits of mixed quality, noted in brackets.
# Experiment: qHTS Assay for Modulators of Lamin A Splicing
# Conditions: HeLa LMNA splicing GFP/RFP minigene ratio, 48 h
# Procedure, shortened: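 S3 HeLa stable clones carrying a lamin A-EGFP splicing minigene plus DsRed2 were seeded at 600 cells/well in Opti-MEM with 2% FBS, pin-dosed and incubated 48 h at 37°C. Acumen cytometry (488 nm) gave the GFP/RFP total-intensity ratio.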
# [1] = measured here: GFP splicing reporter channel
# [2] = measured here: RFP viability control channel
SMILES,AC50 [1],AC50 [2]
N=c1ccn2c(n1)O[C@@H]1[C@@H](O)[C@H](CO)O[C@H]12,"0.00794 µM [falling, full curve, poor fit]","0.0501 µM [rising, full curve, poor fit]"
FC(F)(F)c1cccc(N2CCN(C(=S)NC3CCCC3)CC2)c1,"12.6 µM [rising, single point]","15.8 µM [rising, partial curve]"
CN1C(=O)CSc2ccc(NC(=O)Nc3ccccn3)cc21,–,"12.6 µM [falling, partial curve]"
Cc1ccc[n+](Cc2ccc([N+](=O)[O-])cc2)c1,–,"0.02 µM [falling, full curve]"
Cc1[nH]c(C)c(Cl)c(=O)c1Cl,"0.00251 µM [falling, full curve, poor fit]",–
Cc1ccc(OCc2nnc(N)s2)cc1,"35.5 µM [falling, single point]",–
O=C(NNc1ccccc1[N+](=O)[O-])Nc1ccc(Cl)c(Cl)c1,"4.47 µM [rising, partial curve, poor fit]","20 µM [rising, partial curve]"
CCOC(=O)[C@H]1NN=C(C(=O)OC)[C@@H]1c1ccccc1,"3.16 µM [falling, partial curve, poor fit]",–
COC(=O)c1sccc1N/N=C/c1cccc(Oc2ccccc2)c1,–,"35.5 µM [rising, single point]"
COc1cc(NC(=O)CCCSc2nc(-c3ccco3)cc(C(F)(F)F)n2)cc(OC)c1OC,–,"17.8 µM [rising, partial curve]"
OC(COc1ccc2c(c1)CCC2)CN1CCN(c2ccccc2F)CC1 (configuration not stated),–,"17.8 µM [rising, partial curve, poor fit]"
CN1c2ccccc2-c2nc3ccccc3n2C1c1ccco1 (configuration not stated),"10 µM [rising, partial curve]","11.2 µM [rising, partial curve]"
CCN(c1ccccc1)S(=O)(=O)c1cc(C(=O)Nc2ccc(Br)cc2)ccc1F,"11.2 µM [rising, partial curve] and 2.24 µM [falling, partial curve]","7.08 µM [rising, partial curve]"
CCN(CC)C(=O)Cn1c(SCC(=O)Nc2ccc(C)c(C)c2)nc2ccccc21,"0.178 µM [rising, full curve, poor fit]",–
CCCn1c2ccccc2c2cnn(CC(=O)N(CCCOC(C)C)Cc3ccco3)c(=O)c21,"12.6 µM [falling, partial curve]","20 µM [falling, single point]"
CCOC(=O)C1=C(Cc2ccc(Cl)cc2)C(=O)c2ccccc2C1=O,"10 µM [rising, partial curve, poor fit]","12.6 µM [rising, single point]"
O=S(=O)(c1cccc(NC(=S)N2CCN(c3ccccc3F)CC2)c1)C(F)F,–,"10 µM [rising, partial curve, poor fit]"
Brc1ccc2nc(-c3ccncc3)c(NC3CCCC3)n2c1,"5.62 µM [falling, partial curve]",–
Cc1ccc(NS(=O)(=O)c2ccc(NC(=O)c3cccs3)cc2)c(C)c1,"11.2 µM [rising, partial curve]","14.1 µM [rising, partial curve]"

SMILES,AC50 [1],AC50 [2]
COc1ccc(-c2cnnc(N/N=C/c3c(C)nn(-c4ccccc4)c3Cl)n2)cc1,"5.62 µM [falling, single point]",–
CCCOc1ccc(/C=C/C(=O)Nc2ccc([N+](=O)[O-])cc2)cc1,"6.31 µM [rising, partial curve]","6.31 µM [rising, partial curve]"
CCCCc1c(C)nn(-c2nnc3c4ccccc4n(C)c3n2)c1C,"35.5 µM [rising, single point]","17.8 µM [rising, single point]"
COc1ccc(C(=O)c2sc3nc(C)cc(-c4cccs4)c3c2N)cc1,–,"4.47 µM [rising, partial curve, poor fit]"
COCCn1c(C)cc(C(=O)CSc2nc3ccccc3s2)c1C,"11.2 µM [rising, single point]","11.2 µM [rising, partial curve]"
Cc1ccccc1-c1ccc2ncnc(N(C)Cc3ccco3)c2c1,–,"15.8 µM [falling, single point]"
Cc1ccc(-c2cnco2)cc1,"4.47 µM [rising, full curve, poor fit]","7.94 µM [rising, partial curve, poor fit]"
CC(=O)OC(C(=O)NC1CCCCC1)c1ccc(Cl)c(Cl)c1 (configuration not stated),–,"0.447 µM [falling, full curve]"
Cc1cc(Cl)c(S(=O)(=O)N2CCCC2)cc1OCC(=O)NC1CCCCC1,"20 µM [rising, partial curve, poor fit]","11.2 µM [rising, partial curve]"
Cn1nc(CC(=O)Nc2cccc3ncccc23)c2ccccc2c1=O,–,"7.08 µM [rising, partial curve]"
O=C(C1CCCO1)N1CCN(C(=S)Nc2ccc(Cl)cc2)CC1 (configuration not stated),–,"14.1 µM [rising, single point]"
CCOc1cccc(OCCn2cnc3ccccc3c2=O)c1,"31.6 µM [rising, single point]","35.5 µM [rising, single point]"
CCCC(=O)c1c(NC)cc(C)oc1=O,–,"0.562 µM [falling, full curve, poor fit]"
COc1ccc(Cc2nnc(NC(=O)c3c(-c4ccccc4)noc3C)s2)cc1,–,"15.8 µM [rising, single point]"
CCCCOc1ccc(C2NC(=O)NC(C)=C2C(C)=O)cc1OCC (configuration not stated),"0.0355 µM [rising, full curve, poor fit]",–
C=CCOc1ccc(C=Nc2cccc(Cl)c2)c(O)c1,"0.1 µM [falling, full curve, poor fit]",–
COc1ccc(Br)cc1CNc1ccc2[nH]c(=O)[nH]c2c1,–,"6.31 µM [falling, single point]"
CCOC(=O)CNC(=O)c1ccc(C#CC2(O)CCCCC2)cc1,"35.5 µM [rising, single point]",–
CCOC(=O)c1c(N)sc(C(O)(C(F)(F)F)C(F)(F)F)c1-c1ccc(OC)cc1OC,–,"12.6 µM [rising, single point]"

SMILES,AC50 [1],AC50 [2]
CS(=O)(=O)c1ccc2nc(NC(=O)c3ccc(N4CCCC4=O)cc3)sc2c1,"35.5 µM [falling, single point]","11.2 µM [falling, partial curve, poor fit]"
CCOc1ccc(N/C(C)=C\C(=O)c2ccc3c(c2)OCCO3)cc1,–,"25.1 µM [rising, single point]"
Cc1ccc(S(=O)(=O)N2CCN(Cc3nc4ccccc4n3C)CC2)cc1,"1 µM [rising, partial curve]","6.31 µM [rising, full curve]"
CCN(CC)C(=O)Oc1cc(=O)n2c3c(cccc13)CCC2,"14.1 µM [rising, single point]","1.41 µM [rising, partial curve]"
CC1(C)C(c2ccccc2)=[N+]([O-])C2(CCCCC2=O)N1O (configuration not stated),"3.16 µM [falling, single point]",–
O=C(NC1=NCCS1)c1cc(-c2ccc(F)cc2)nc2ccccc12,–,"8.91 µM [rising, partial curve, poor fit]"
CCn1cc(NC(=O)CCl)c(C)n1,–,"22.4 µM [falling, partial curve, poor fit]"
Cc1nn(CCC#N)c2[nH]c(=O)cc(C(F)(F)F)c12,"0.398 µM [falling, partial curve, poor fit]",–
CCCCCn1c(CCCNC(=O)CC)nc2ccccc21,–,"0.126 µM [rising, full curve, poor fit]"
COc1ccc(C(CC(=O)Nc2ccc(F)cc2)c2ccccc2)cc1 (configuration not stated),"14.1 µM [falling, single point]","14.1 µM [falling, single point]"
Cc1ccc(S(=O)(=O)NCCSCc2ccco2)cc1,"1.26 µM [rising, single point]",–
COC(=O)C(=C/C(C)=C/c1cccnc1)C(=O)OC,–,"35.5 µM [rising, single point]"
COc1ccc(N(CC(=O)NC2CCCC2)C(=O)Cn2nnc(-c3ccc(OC)c(OC)c3)n2)cc1,"0.282 µM [falling, full curve, poor fit]","0.0708 µM [falling, full curve, poor fit]"
CN1C(=O)NC(c2ccc(O)cc2)C2=C1CN(c1cccc3ccccc13)C2=O (configuration not stated),–,"0.00501 µM [falling, full curve, poor fit]"
COc1cccc(S(=O)(=O)NCc2ccc(C(=O)Nc3cccc(Cl)c3)cc2)c1,–,"17.8 µM [rising, single point]"
Cc1ccccc1N1C(N)=NC(N)=NC1(C)C,"5.01 µM [falling, partial curve]",–
CCOc1cc(C(=O)Nc2cc(C)ccn2)cc(OCC)c1OCC,"14.1 µM [rising, partial curve]","11.2 µM [rising, partial curve]"
CC(C)(C)OC(=O)NCC(=O)Oc1cc2oc(=O)cc(-c3ccccc3)c2cc1Cl,–,"12.6 µM [rising, partial curve]"
O=C(NCc1ccncc1)/C(=C\c1ccc(F)cc1)NC(=O)c1ccccc1,–,"22.4 µM [rising, single point]"
